The structures appear in SMILES notation.

In assay [1] the test system is L5/L6 spinal nerve ligated male Sprague Dawley rats. The experiment in a line: Mechanical hypersensitivity. It is filed as in vivo, rat. Conditions: 10 μg/5μL intrathecal (morphine 10 μg); vehicle AUC=22.07 ± 3.02.
The test system is the same in assay [2]. The experiment in a line: Thermal hypersensitivity. It is filed as in vivo, rat. To be noted: morphine (10 mg) intrathecal; vehicle AUC=55.52 ± 2.74. Also noted: unit not given beside the values.

In the case of `CN1CC[C@]23c4c5ccc(O)c4O[C@H]2[C@@H](O)C=C[C@H]3[C@H]1C5` [morphine, reference compound], the “AUC, paw withdrawal threshold (mechanical)” value in assay [1] amounted to 34.96 ± 7.99. Besides, the “AUC, paw withdrawal latency (thermal)” value in assay [2] was found to be 77.33 ± 6.71.

The values above are taken from paper PMC3105124 (Brain research, 2011).
